For 1 substance, binding results are on record in paper PMC4706110.

Sequences of proteins named here, by UniProt entry; tags and fusion partners are left off.
UniProt Q00613: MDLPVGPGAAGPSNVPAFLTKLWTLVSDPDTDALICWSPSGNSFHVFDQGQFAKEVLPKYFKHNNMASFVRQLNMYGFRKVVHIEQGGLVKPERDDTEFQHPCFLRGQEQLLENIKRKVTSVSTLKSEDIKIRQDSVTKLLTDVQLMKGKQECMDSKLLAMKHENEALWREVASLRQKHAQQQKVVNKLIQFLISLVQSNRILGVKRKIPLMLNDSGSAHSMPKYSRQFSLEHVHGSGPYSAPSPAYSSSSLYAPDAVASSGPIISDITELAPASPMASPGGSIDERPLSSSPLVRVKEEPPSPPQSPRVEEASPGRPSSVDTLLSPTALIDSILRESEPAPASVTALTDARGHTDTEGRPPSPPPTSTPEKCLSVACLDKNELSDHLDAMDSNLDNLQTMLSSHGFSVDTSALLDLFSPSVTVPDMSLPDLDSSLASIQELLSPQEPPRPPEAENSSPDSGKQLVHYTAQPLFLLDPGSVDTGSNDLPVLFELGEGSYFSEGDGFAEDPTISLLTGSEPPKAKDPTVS
UniProt P46934: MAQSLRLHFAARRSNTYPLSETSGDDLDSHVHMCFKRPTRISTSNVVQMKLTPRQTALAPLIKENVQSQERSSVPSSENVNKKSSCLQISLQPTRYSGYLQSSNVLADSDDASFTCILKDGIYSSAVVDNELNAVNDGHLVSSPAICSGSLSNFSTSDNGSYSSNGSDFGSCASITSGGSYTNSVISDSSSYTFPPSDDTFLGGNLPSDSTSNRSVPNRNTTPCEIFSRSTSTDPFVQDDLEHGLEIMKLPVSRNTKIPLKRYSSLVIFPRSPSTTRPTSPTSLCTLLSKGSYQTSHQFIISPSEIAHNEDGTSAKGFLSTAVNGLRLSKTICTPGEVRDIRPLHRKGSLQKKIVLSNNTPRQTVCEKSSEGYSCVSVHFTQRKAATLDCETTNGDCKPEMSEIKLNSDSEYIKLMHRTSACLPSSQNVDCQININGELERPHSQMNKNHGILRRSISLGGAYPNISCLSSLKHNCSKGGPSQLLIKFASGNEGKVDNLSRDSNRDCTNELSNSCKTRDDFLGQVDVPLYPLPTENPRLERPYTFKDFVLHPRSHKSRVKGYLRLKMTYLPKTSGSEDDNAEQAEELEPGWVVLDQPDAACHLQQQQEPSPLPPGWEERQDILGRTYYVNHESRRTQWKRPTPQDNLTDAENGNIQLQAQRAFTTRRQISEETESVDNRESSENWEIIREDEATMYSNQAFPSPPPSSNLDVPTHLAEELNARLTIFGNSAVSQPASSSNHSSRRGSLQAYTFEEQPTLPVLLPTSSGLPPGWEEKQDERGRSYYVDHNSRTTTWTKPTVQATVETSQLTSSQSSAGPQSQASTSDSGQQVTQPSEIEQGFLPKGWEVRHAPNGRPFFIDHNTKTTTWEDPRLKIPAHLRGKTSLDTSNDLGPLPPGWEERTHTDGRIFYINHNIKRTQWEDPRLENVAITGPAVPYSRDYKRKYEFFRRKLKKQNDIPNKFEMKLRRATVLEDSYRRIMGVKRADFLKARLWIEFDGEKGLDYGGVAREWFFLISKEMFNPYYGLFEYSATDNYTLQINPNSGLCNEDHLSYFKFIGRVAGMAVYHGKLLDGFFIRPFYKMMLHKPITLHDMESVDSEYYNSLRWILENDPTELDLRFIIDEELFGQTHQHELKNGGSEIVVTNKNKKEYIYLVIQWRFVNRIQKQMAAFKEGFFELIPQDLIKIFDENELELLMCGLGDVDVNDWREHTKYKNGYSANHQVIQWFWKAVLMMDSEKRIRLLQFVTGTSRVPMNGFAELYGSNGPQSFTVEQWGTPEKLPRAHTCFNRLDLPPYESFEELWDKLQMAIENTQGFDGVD

The target in this test is heat shock transcription factor 1 (HSF1) (human (endogenous in SH-SY5Y)) (UniProt Q00613). The test can be described thus: co-IP; endogenous HSF1 precipitated with anti-HSF1 antibody from whole-cell lysates of SH-SY5Y cells, three days after transfection of GFP-A53T alpha-syn or empty GFP vector alone or together with HA-Ub; immunoblot with anti-NEDD4; also with SIRT1 WT overexpression (interaction reduced, Fig. 5D).

These are yes or no findings as the source states them, for the method shown. Binding seen in cells or lysates may run through a third protein. Some results given as binding are weak or reduced against the parent protein; the word gives no strength.

Regarding “neural precursor cell expressed, developmentally down-regulated 4 (NEDD4) (from UniProt P46934 1-1319) (enzyme)”, the binding entry is “binds”.
